Results are given in words; binding and its absence hold for the method and conditions named. In cells and extracts the contact can be indirect. Binding can be weak; no strength is given. For part of these data: Tags and fused reporters may be left off the sequences shown.

By UniProt entry, the sequences of proteins in these tests, tags left out. Where a name states a change or a piece, a line headed by the entry shows the natural chain unless it says otherwise.
UniProt A2CG63: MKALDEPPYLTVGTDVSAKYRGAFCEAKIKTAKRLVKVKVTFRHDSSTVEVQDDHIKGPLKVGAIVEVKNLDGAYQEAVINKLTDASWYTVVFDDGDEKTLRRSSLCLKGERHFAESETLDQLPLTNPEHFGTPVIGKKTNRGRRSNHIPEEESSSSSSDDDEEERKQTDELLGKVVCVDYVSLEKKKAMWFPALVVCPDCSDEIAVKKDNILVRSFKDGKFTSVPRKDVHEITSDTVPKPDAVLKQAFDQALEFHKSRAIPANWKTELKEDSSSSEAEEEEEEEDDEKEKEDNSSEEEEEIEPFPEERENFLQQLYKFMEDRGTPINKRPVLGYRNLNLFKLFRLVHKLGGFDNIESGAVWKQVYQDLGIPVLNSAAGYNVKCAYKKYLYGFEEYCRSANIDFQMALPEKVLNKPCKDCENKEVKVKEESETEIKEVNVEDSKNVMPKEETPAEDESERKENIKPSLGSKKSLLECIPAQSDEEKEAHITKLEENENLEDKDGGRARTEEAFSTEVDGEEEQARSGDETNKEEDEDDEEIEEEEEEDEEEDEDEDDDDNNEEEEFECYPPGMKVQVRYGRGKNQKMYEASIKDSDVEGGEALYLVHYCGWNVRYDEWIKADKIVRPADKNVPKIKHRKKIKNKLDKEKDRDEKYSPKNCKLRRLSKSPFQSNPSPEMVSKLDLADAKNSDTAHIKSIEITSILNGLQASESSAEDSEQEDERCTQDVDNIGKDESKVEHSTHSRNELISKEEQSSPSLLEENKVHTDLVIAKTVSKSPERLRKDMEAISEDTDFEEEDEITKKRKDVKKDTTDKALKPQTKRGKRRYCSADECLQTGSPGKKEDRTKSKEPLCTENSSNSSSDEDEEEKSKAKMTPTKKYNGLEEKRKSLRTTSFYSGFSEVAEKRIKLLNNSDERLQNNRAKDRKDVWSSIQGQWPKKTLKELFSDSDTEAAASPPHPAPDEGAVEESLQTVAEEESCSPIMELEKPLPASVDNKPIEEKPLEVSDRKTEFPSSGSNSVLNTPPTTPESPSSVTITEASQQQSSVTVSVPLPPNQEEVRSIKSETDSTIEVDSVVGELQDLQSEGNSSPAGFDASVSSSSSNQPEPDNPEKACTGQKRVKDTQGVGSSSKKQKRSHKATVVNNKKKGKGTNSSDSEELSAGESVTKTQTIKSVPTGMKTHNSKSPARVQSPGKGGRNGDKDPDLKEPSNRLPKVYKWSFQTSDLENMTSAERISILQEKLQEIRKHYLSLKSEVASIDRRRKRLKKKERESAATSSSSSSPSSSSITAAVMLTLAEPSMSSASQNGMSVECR

The source of these data is paper PMC3364935.

The target in one test is T1, myc-BRMS1 (UniProt Q9HCU9).
T1 sequence: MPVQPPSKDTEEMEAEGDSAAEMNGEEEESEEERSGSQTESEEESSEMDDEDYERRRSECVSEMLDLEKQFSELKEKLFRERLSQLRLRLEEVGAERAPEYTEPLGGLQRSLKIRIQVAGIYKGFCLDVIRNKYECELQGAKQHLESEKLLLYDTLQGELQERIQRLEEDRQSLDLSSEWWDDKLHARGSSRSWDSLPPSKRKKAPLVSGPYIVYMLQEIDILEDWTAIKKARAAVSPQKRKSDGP
Briefly: co-IP; HEK293 cells transiently transfected with FLAG-tagged ARID4B (AKR or DBA) and myc-BRMS1; anti-myc immunoprecipitation, overnight at 4°C; FLAG-ARID4B by western blot. (In general: Immunoblotting shows a protein as a band on a membrane.)

Test [1] deals with V5-tagged ARID4B, AKR allele (mouse) (UniProt A2CG63). Nature of the test: co-IP; HEK293 cells transiently transfected with V5-tagged ARID4B (AKR or DBA allele); anti-V5 immunoprecipitation from lysate in mild IP lysis buffer (25 mM Tris-HCl pH 7.4, 150 mM NaCl, 1 mM EDTA, 1% NP-40, 5% glycerol), overnight at 4°C; endogenous mSIN3A and mSDS3 by western blot, densitometry of triplicate.

Test [2] deals with FLAG-tagged ARID4B, AKR allele (mouse) (UniProt A2CG63). Nature of the test: co-IP; HEK293 cells transiently transfected with FLAG-tagged ARID4B (AKR or DBA) and HA-BRMS1; anti-FLAG immunoprecipitation, overnight at 4°C; HA-BRMS1 by western blot.

As to “FLAG-tagged ARID4B, AKR allele (from UniProt A2CG63-1)”, in the test with myc-BRMS1, the binding entry is recorded as “binds”.

B1: mSDS3 (endogenous) (protein, UniProt Q9H7L9 1-328)
chain: MSAAGLLAPAPAQAGAPPAPEYYPEEDEELESAEDDERSCRGRESDEDTEDASETDLAKHDEEDYVEMKEQMYQDKLASLKRQLQQLQEGTLQEYQKRMKKLDQQYKERIRNAELFLQLETEQVERNYIKEKKAAVKEFEDKKVELKENLIAELEEKKKMIENEKLTMELTGDSMEVKPIMTRKLRRRPNDPVPIPDKRRKPAPAQLNYLLTDEQIMEDLRTLNKLKSPKRPASPSSPEHLPATPAESPAQRFEARIEDGKLYYDKRWYHKSQAIYLESKDNQKLSCVISSVGANEIWVRKTSDSTKMRIYLGQLQRGLFVIRRRSAA
In the case of B1, the binding entry in test [1] was “binds”.

B2: HA-BRMS1 (protein, UniProt Q9HCU9 1-246)
chain: MPVQPPSKDTEEMEAEGDSAAEMNGEEEESEEERSGSQTESEEESSEMDDEDYERRRSECVSEMLDLEKQFSELKEKLFRERLSQLRLRLEEVGAERAPEYTEPLGGLQRSLKIRIQVAGIYKGFCLDVIRNKYECELQGAKQHLESEKLLLYDTLQGELQERIQRLEEDRQSLDLSSEWWDDKLHARGSSRSWDSLPPSKRKKAPLVSGPYIVYMLQEIDILEDWTAIKKARAAVSPQKRKSDGP
On to B2, for which, in test [2], the binding entry is listed as “binds”.
